Experimental data reported in patent US20200024223A1, “CRYSTALLINE SALTS OF (4S,4AS,5AR,12AS)-4-DIMETHYLAMINO-3,10,12,12A-TETRAHYDROXY-7-[(METHOXY(METHYL)AMINO)-METHYL]-1,11-DIOXO-1,4,4A,5,5A,6,11,12A-OCTAHYDRO-NAPHTHACENE-2-CARBOXYLIC ACID AMIDE AND METHODS OF USING THE SAME” (priority 2011, published 2020).
At least one compound was matched to its structure with a doubt left.

Experiments:
[1] = test system: Streptococcus spp. [Group C]; assay: In vitro MIC testing, antibacterial spectrum of activity; type: cell-based; conditions: Streptococcus spp. [Group C] (30 isolates)
[2] = test system: S. epidermidis; assay: as above; type: cell-based, Staphylococcus epidermidis; conditions: S. epidermidis [MSSE] (31 isolates)
[3] = test system: P. granulosum; assay: as above; type: cell-based; conditions: P. granulosum [clinical isolates] (3 isolates)
[4] = test system: S. pneumoniae; assay: as above; type: cell-based, Streptococcus pneumoniae; conditions: S. pneumoniae [PSSP] (32 isolates)
[5] = test system: E. faecium; assay: as above; type: cell-based; conditions: E. faecium [tetS] (4 isolates)
[6] = test system: bacterial protein synthesis; assay: In vitro cell-free bacterial transcription and translation assay; type: biochemical; conditions: cell-free bacterial transcription and translation assay (Promega)

With `CCC[C@@H]1C[C@@H](C(=O)N[C@@H]([C@H]2O[C@H](SC)[C@H](O)[C@@H](O)[C@H]2O)[C@H](C)Cl)N(C)C1` [Clindamycin] the “MIC Range” value [1] was ≤0.015->16, the “MIC Range” value [2] was ≤0.03->32 and the “MIC Range” value [3] was ≤0.06-≤0.06. For the same compound, the “MIC Range” value [4] was ≤0.015->16.
With `C[C@H]1c2cccc(O)c2C(=O)C2=C(O)[C@]3(O)C(=O)C(C(N)=O)=C(O)[C@@H](N(C)C)[C@@H]3[C@@H](O)[C@@H]21` [Doxycycline, doxycycline] the “MIC Range” value [5] was ≤0.06-≤0.06.
For `CN(C)c1ccc(O)c2c1C[C@H]1C[C@H]3[C@H](N(C)C)C(O)=C(C(N)=O)C(=O)[C@@]3(O)C(O)=C1C2=O` [Minocycline, minocycline], the “IC50, inhibition of synthesis of reporter protein” value [6] was 2.4 f 0.22 μM.
